In the supplement of paper PMC12823440, “Inhibitors supercharge kinase turnover through native proteolytic circuits” (Nature, 2025):
Counter-ions that a name gives are not always drawn. The list shows a part of the results. The calls rarely recur for the same compound in another form.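 In K562 cells expressing nanoluciferase-fused kinases, luminescence was recorded at 4 h intervals between 2 and 18 h, normalized as percent of control with DMSO at 100% and a positive control at 0%. A significant (2 sigma) signal drop marks a time point as decreased. The authors' rule for a hit is not shown and takes in more than the number of time points.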

Amino acid sequences for entries named in this document (tags omitted). A change or cut given only in a name is not applied to a line headed by its entry.
UniProt Q05397, whole entry, looked up: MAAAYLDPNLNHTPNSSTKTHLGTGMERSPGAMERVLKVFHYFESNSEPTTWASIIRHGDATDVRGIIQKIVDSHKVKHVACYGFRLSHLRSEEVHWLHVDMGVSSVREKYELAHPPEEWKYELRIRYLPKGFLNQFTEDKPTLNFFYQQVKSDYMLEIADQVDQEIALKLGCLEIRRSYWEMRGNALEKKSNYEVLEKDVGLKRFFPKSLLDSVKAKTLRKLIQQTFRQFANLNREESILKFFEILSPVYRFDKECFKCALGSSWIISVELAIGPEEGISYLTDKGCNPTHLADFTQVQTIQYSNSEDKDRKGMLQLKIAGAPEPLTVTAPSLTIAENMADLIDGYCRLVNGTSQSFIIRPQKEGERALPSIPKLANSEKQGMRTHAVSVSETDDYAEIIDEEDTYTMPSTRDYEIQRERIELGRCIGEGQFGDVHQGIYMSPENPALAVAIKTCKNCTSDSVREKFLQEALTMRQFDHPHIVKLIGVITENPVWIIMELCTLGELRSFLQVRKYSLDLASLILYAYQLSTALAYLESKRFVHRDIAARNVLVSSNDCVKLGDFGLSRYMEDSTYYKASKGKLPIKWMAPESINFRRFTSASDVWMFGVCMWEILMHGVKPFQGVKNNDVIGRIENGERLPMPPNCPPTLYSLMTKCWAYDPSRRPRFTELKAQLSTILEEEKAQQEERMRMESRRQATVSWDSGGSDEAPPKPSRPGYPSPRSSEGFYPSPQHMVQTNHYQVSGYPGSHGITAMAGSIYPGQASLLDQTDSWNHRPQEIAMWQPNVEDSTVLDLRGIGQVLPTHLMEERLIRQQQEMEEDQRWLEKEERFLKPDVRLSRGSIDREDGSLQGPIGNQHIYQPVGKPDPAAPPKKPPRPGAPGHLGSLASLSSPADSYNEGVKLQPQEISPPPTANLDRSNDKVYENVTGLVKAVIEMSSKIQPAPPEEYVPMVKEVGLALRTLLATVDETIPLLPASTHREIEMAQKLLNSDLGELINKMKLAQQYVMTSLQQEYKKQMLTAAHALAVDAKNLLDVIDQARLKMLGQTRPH
UniProt Q9BRS2: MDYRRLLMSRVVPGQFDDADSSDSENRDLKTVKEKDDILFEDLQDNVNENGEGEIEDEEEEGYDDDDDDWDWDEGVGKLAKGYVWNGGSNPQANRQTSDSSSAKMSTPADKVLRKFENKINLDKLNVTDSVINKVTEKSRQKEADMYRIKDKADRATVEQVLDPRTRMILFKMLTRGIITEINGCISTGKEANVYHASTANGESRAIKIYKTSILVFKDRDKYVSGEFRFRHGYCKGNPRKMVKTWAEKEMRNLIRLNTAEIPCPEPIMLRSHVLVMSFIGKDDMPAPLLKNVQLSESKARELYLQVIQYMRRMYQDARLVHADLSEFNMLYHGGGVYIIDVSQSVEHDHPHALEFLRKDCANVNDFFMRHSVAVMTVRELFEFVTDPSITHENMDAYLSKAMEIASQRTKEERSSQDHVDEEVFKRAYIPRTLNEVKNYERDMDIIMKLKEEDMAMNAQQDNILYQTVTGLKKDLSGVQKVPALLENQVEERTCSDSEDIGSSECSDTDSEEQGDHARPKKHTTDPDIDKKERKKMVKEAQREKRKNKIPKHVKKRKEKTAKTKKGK
UniProt Q15418, whole entry: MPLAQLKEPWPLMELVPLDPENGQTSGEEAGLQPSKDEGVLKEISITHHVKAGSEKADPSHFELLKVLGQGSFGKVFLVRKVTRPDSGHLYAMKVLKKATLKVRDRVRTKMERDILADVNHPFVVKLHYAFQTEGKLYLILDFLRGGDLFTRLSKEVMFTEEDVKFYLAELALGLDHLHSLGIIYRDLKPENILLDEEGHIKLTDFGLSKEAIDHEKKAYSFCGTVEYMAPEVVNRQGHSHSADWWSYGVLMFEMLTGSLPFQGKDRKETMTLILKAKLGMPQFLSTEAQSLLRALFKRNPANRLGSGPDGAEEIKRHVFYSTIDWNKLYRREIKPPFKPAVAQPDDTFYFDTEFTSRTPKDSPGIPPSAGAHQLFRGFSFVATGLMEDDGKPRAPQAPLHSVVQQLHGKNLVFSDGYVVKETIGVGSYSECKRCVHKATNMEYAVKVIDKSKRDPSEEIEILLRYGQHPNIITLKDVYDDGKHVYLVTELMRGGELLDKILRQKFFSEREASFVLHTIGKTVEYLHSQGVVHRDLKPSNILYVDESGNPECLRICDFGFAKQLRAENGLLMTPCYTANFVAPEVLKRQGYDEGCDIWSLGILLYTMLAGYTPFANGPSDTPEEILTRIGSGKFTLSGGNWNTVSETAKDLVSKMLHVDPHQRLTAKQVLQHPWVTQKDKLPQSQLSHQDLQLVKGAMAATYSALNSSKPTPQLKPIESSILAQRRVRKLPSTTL
UniProt Q9NYA1, whole entry: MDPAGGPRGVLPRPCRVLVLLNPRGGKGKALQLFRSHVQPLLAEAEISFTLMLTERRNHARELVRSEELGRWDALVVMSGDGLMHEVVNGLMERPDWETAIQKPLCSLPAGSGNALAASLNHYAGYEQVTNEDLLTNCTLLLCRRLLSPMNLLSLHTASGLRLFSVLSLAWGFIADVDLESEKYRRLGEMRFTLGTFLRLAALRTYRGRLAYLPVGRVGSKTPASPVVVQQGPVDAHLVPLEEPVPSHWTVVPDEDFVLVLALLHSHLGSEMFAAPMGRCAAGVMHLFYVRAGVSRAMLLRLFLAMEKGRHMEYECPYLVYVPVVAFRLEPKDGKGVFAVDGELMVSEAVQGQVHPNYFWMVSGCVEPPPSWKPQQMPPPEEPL
UniProt Q9Y6E0: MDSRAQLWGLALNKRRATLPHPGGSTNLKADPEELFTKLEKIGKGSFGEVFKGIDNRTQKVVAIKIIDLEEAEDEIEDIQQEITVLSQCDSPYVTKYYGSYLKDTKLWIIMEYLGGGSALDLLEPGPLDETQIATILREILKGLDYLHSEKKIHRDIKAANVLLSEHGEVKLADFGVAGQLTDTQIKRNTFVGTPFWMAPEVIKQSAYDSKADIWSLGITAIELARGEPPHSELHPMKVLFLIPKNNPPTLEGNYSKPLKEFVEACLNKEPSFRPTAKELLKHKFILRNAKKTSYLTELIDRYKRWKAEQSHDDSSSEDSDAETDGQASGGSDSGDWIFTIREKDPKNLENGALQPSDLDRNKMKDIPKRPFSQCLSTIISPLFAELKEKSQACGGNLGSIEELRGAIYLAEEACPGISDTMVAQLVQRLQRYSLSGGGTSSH
UniProt Q15208: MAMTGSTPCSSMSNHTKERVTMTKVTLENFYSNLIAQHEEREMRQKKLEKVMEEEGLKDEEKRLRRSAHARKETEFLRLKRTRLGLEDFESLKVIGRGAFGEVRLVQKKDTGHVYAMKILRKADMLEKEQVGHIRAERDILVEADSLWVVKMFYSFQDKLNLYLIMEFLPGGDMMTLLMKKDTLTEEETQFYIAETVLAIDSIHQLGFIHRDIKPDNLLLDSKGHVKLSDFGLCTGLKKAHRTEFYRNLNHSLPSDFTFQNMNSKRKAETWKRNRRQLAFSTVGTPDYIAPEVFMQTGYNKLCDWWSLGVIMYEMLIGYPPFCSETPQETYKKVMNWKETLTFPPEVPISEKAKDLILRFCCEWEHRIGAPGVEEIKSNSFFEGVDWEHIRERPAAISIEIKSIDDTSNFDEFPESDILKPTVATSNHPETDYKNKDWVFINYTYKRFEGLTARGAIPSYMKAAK
UniProt P42680: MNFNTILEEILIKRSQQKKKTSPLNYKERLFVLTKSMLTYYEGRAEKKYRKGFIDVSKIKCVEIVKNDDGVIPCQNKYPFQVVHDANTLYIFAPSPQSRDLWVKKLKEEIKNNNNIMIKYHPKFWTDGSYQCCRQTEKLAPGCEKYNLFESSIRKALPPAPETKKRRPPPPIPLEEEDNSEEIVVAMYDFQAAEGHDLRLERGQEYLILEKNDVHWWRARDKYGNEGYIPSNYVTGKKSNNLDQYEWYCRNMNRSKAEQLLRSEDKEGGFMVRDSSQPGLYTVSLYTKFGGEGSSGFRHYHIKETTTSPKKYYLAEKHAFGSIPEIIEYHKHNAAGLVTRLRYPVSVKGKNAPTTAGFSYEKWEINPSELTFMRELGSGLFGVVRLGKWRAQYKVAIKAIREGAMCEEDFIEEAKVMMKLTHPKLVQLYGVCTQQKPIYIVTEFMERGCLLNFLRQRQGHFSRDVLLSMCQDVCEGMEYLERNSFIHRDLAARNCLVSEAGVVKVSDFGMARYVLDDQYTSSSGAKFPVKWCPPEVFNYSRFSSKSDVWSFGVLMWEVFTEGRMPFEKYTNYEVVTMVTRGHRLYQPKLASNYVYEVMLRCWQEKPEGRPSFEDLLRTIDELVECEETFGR
UniProt P29597: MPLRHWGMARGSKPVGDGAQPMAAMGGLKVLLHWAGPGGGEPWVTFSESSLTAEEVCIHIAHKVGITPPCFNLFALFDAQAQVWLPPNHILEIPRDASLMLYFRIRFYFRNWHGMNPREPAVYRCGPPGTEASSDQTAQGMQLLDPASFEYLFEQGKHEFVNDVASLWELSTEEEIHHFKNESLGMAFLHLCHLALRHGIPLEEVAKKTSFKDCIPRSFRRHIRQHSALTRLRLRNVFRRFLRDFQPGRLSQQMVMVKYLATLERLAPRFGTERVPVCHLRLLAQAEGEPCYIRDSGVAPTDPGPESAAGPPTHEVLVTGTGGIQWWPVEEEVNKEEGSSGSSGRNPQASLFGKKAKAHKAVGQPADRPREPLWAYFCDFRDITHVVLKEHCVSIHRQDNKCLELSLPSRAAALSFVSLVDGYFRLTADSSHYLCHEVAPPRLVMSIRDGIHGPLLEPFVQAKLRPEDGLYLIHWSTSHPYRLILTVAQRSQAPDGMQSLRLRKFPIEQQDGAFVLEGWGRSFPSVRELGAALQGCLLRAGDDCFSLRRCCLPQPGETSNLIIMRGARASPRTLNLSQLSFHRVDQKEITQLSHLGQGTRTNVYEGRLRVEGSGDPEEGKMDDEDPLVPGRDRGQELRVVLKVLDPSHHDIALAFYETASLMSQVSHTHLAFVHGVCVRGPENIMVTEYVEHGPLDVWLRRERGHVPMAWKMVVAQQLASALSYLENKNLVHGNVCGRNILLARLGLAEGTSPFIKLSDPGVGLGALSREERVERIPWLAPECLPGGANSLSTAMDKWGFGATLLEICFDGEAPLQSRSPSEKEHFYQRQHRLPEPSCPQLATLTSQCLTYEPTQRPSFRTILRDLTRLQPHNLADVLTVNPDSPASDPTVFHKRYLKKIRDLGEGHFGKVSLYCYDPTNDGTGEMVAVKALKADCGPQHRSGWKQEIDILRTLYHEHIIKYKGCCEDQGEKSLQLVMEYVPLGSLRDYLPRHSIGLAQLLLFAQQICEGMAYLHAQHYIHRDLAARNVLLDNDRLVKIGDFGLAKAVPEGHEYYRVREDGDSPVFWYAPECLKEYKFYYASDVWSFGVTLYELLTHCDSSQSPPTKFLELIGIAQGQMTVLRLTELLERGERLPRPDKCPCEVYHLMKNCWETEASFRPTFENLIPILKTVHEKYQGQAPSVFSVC

Columns and labels:
Assay in all cases: number of time points (of 5) at which kinase-Nluc abundance scored as decreased, DMSO-normalised (count); higher = more persistent destabilization
Conditions in all cases: K562; 2-18 h
PRKCA = PRKCA (UniProt P17252)
PTK2 = PTK2 (UniProt Q05397)
PTK2B = PTK2B (UniProt Q14289)
RAF1 = RAF1 (UniProt P04049)
[1] = biological target: RAF1_S257L (clone: RAF1_mut) (UniProt P04049)
RET = RET (UniProt P07949)
[2] = biological target: RET_M918T (clone: RET_mut) (UniProt P07949)
RIOK1 = RIOK1 (UniProt Q9BRS2)
RIPK1 = RIPK1 (UniProt Q13546)
RIPK2 = RIPK2 (UniProt O43353)
ROR2 = ROR2 (UniProt Q01974)
RPS6KA1 = RPS6KA1 (UniProt Q15418)
SPHK1 = SPHK1 (UniProt Q9NYA1)
SRC = SRC (UniProt P12931)
STK24 = STK24 (UniProt Q9Y6E0)
STK38 = STK38 (UniProt Q15208)
SYK = SYK (UniProt P43405)
TEC = TEC (UniProt P42680)
TYK2 = TYK2 (UniProt P29597)
ULK3 = ULK3 (UniProt Q6PHR2)

Measured: number of time points

OC(COc1ccc(C(F)(F)F)cc1)CN(Cc1ccccc1)Cc1ccccc1 (stereo not given) (2.5 µM)
0: all assays above

N#Cc1ccc2ncnc(NC3CCC(N4CCOCC4)CC3)c2c1 (stereo not given) (10 µM)
0: all assays above

COc1ccc(Cn2cc(C(=O)N=Nc3c(O)[nH]c4c(C)cccc34)nn2)cc1 [MARK4 inhibitor 1] (10 µM)
1: SPHK1
0: all other assays above

O=C(NCCCNc1nc(Nc2cccc(NC(=O)N3CCCC3)c2)ncc1I)c1cccs1 (2.5 µM)
1: ULK3
0: all other assays above

Cn1cc(-c2ccc(CNc3cc(-c4cnc5cc(OCCCN6CCCC6)ccn45)ncn3)cc2)cn1 (10 µM)
0: all assays above

COCCOc1cnc(Sc2cc(C)c(-c3csc(NC(=O)c4ccncc4)n3)c(C)c2)cn1 [T-1101 (tosylate)] (2.5 µM)
2: [2]
0: all other assays above

OC[C@H]1O[C@@H](Oc2cc3c(O)cc(O)cc3[o+]c2-c2cc(O)c(O)c(O)c2)[C@H](O)[C@@H](O)[C@@H]1O [Delphinidin 3-glucoside (chloride)] (10 µM)
0: all assays above

C[C@@H]1C(=O)O[C@H](C)[C@H]1C[C@@H](O)[C@](C)(O)[C@H]1CC[C@@]2(O)C3=CC(=O)[C@@H]4C[C@@H](O)[C@@H](O)C[C@]4(C)[C@H]3CC[C@]12C [Cyasterone] (10 µM)
0: all assays above

Fc1ccc(-c2nc(-c3c(F)cccc3F)[nH]c2-c2ccncc2)cc1 (10 µM)
0: all assays above

C=C1C(=O)O[C@@H]2C[C@@]3(C)CCC[C@H](C)C3=C[C@H]12 [Alantolactone] (10 µM)
0: all assays above

c1cc2c(cc1O[C@H]1OC[C@H]3[C@@H]1CO[C@@H]3c1ccc3c(c1)OCO3)OCO2 [Sesamolin] (10 µM)
0: all assays above

Quoted at random: 2 compounds from above
C[C@@H]1C(=O)O[C@H](C)[C@H]1C[C@@H](O)[C@](C)(O)[C@H]1CC[C@@]2(O)C3=CC(=O)[C@@H]4C[C@@H](O)[C@@H](O)C[C@]4(C)[C@H]3CC[C@]12C [Cyasterone] (10 µM)
0: all assays above

Fc1ccc(-c2nc(-c3c(F)cccc3F)[nH]c2-c2ccncc2)cc1 (10 µM)
0: all assays above

(further entries)

Fc1ccc(-c2nc(-c3ccccc3F)[nH]c2-c2ccncc2)cc1 (2.5 µM)
0: all assays above

CN(CC(=O)N(Cc1ccc(C2CCCCC2)cc1)c1ccc(C(=O)O)cc1)S(=O)(=O)c1c(F)c(F)c(F)c(F)c1F (2.5 µM)
5: RAF1
0: all other assays above

CC(C)NC(=O)N1CC[C@H](NC2=Nc3cc(F)ccc3N(CC(F)F)c3ccc(Cl)cc32)C1 (10 µM)
0: all assays above

CCn1c(-c2nonc2N)nc2cnc(Oc3cccc(NC(=O)c4ccc(OCCN5CCOCC5)cc4)c3)cc21 (10 µM)
5: PTK2
0: all other assays above

NCc1ccc(Nc2ncc(F)c(Nc3ccccc3)n2)cc1 (10 µM)
0: all assays above

CN1C(=O)C(Cc2c[nH]c3ccccc23)NC1=S (stereo not given) [Necrostatin-1] (10 µM)
0: all assays above

Cn1c(=O)c(F)c(Nc2ccc(I)cc2F)c2c(=O)n(C[C@@H](O)CO)cnc21 (10 µM)
1: RAF1 | ULK3
0: all other assays above

COc1cc2ncn(-c3cc(OCc4ccccc4S(C)(=O)=O)c(C#N)s3)c2cc1OC (10 µM)
0: all assays above

COc1ccc(Cl)cc1NC(=O)Nc1cc(C)nc2ccccc12 (2.5 µM)
0: all assays above

Nc1ncc(-c2cccc(N3CCNCC3)c2)cc1C(=O)Nc1ccncc1 [PKC-iota inhibitor 1] (10 µM)
0: all assays above

O=C(NCCCNC(=O)Nc1cccc(C2=NCCN2)c1)Nc1cccc(C2=NCCN2)c1 [p32 Inhibitor M36] (10 µM)
0: all assays above

O=C(NC(NC(=S)Nc1ccc(F)c([N+](=O)[O-])c1)C(Cl)(Cl)Cl)C(c1ccccc1)c1ccccc1 (stereo not given) (10 µM)
1: RIPK1
0: all other assays above

CN(C)CCN(Cc1ccc(Cl)cc1)c1ccccn1 [Chloropyramine hydrochloride] (10 µM)
4: STK38
0: all other assays above

A draw from above in order of count of non-hydrogen atoms, low to high.
C=C1C(=O)O[C@@H]2C[C@@]3(C)CCC[C@H](C)C3=C[C@H]12 [Alantolactone] (10 µM)
0: all assays above

CN1C(=O)C(Cc2c[nH]c3ccccc23)NC1=S (stereo not given) [Necrostatin-1] (10 µM)
0: all assays above

CN(C)CCN(Cc1ccc(Cl)cc1)c1ccccn1 [Chloropyramine hydrochloride] (10 µM)
4: STK38
0: all other assays above

NCc1ccc(Nc2ncc(F)c(Nc3ccccc3)n2)cc1 (10 µM)
0: all assays above

COc1ccc(Cl)cc1NC(=O)Nc1cc(C)nc2ccccc12 (2.5 µM)
0: all assays above

Fc1ccc(-c2nc(-c3ccccc3F)[nH]c2-c2ccncc2)cc1 (2.5 µM)
0: all assays above

Fc1ccc(-c2nc(-c3c(F)cccc3F)[nH]c2-c2ccncc2)cc1 (10 µM)
0: all assays above

c1cc2c(cc1O[C@H]1OC[C@H]3[C@@H]1CO[C@@H]3c1ccc3c(c1)OCO3)OCO2 [Sesamolin] (10 µM)
0: all assays above

Nc1ncc(-c2cccc(N3CCNCC3)c2)cc1C(=O)Nc1ccncc1 [PKC-iota inhibitor 1] (10 µM)
0: all assays above

COc1cc2ncn(-c3cc(OCc4ccccc4S(C)(=O)=O)c(C#N)s3)c2cc1OC (10 µM)
0: all assays above

CC(C)NC(=O)N1CC[C@H](NC2=Nc3cc(F)ccc3N(CC(F)F)c3ccc(Cl)cc32)C1 (10 µM)
0: all assays above

O=C(NC(NC(=S)Nc1ccc(F)c([N+](=O)[O-])c1)C(Cl)(Cl)Cl)C(c1ccccc1)c1ccccc1 (stereo not given) (10 µM)
1: RIPK1
0: all other assays above

CCn1c(-c2nonc2N)nc2cnc(Oc3cccc(NC(=O)c4ccc(OCCN5CCOCC5)cc4)c3)cc21 (10 µM)
5: PTK2
0: all other assays above

(list continues)

CC(C)CN[C@H]1CS(=O)(=O)C[C@@H]1S(=O)(=O)c1ccc(Cl)cc1 (10 µM)
1: [1] | RIPK2 | TYK2 | ULK3
0: all other assays above

C[C@]1(O)CCC[C@@H]1n1c(=O)c(C(F)F)cc2cnc(NC3CCN(S(C)(=O)=O)CC3)nc21 (10 µM)
0: all assays above

O=C(Nc1ccc2[nH]nc(-c3ccncc3)c2c1)[C@@H]1CCN(CC(=O)N2CCN(c3ccc(-c4ncccn4)cc3)CC2)C1 (2.5 µM)
0: all assays above

O=C1NC(=O)C(=Cc2ccc(-c3ccc(F)cc3)o2)S1 (stereo in doubt) (10 µM)
2: RAF1
0: all other assays above

CCn1c(=O)c(-c2ccc(-c3cncs3)cc2Cl)cc2cnc(Nc3ccc(N4CCN(C)CC4)cc3)nc21 (2.5 µM)
0: all assays above

CC(C)=CC[C@H](O)C1=CC(=O)c2c(O)ccc(O)c2C1=O [(-)-Alkannin] (2.5 µM)
0: all assays above

Cc1c(NC(=O)OC[C@@H]2COCCN2)cn2ncnc(Nc3ccc4c(cnn4Cc4cccc(F)c4)c3)c12 (10 µM)
0: all assays above

C=C(C)C(=O)Nc1cccc(-c2ncnc3[nH]cc(C(=O)OCC)c23)c1 (10 µM)
0: all assays above

CNc1nc(Nc2cnn(C3CCN(C4COC4)CC3F)c2Cl)ncc1C(F)(F)F (stereo not given) (10 µM)
0: all assays above

COc1cc([N+](=O)[O-])ccc1S(=O)(=O)N1C[C@@H](CN2CCN(c3ccccn3)CC2)[C@H](c2cccc(F)c2)C1 (relative stereo) (10 µM)
0: all assays above

COc1cc(F)c(F)c(Nc2ccc(I)cc2F)c1NS(=O)(=O)C1(C[C@H](O)CO)CC1 [Refametinib] (10 µM)
1: [1]
2: RAF1 | ULK3
0: all other assays above

COc1c(NC(=O)C(=O)c2ccc(OCCN3CCOCC3)c3ccccc23)cc(C(C)(C)C)cc1NS(C)(=O)=O (2.5 µM)
0: all assays above

C[C@@]1(O)CCC[C@H]1n1c(=O)c(C(F)F)cc2cnc(NC3CCN(S(C)(=O)=O)CC3)nc21 (2.5 µM)
3: [2] | RIPK1
1: [1]
0: all other assays above

CC(C)CC1(O)CCN(C(=O)c2ccc(NS(=O)(=O)c3cccc4nccnc34)cc2)CC1 (10 µM)
0: all assays above

Nc1cc(Nc2ccc(S(N)(=O)=O)cc2)ncn1 (10 µM)
0: all assays above

NC1(Cc2ccc(Cl)cc2)CCN(c2ncnc3[nH]ccc23)CC1 (10 µM)
0: all assays above

Cc1cc(NC(=O)c2cccc(NC(=O)/C=C/CN(C)C)c2)ccc1Nc1nccc(-c2cccnc2)n1 (10 µM)
3: RIPK2 | TYK2
0: all other assays above

c1cn2cc(-c3ccc4cn[nH]c4c3)nc(Nc3ccc(N4CCOCC4)cc3)c2n1 [Entospletinib] (10 µM)
0: all assays above

Cc1ccc(Nc2cc(-c3cccc(N4C(=O)c5ccccc5C4=O)c3)ncn2)cc1NS(C)(=O)=O (10 µM)
1: RIPK1
0: all other assays above

Cc1ccc2nc(NC(=O)CSc3nc4c(c(=O)n3-c3ccccc3)SCC4)sc2c1 (2 µM)
0: all assays above

Cc1cc([C@H](C)Nc2ccccc2)c2oc(N3CCOCC3)cc(=O)c2c1 (10 µM)
0: all assays above

O=C(/C=C/c1ccc(O)c(O)c1)OC1CC(OC(=O)/C=C/c2ccc(O)c(O)c2)(C(=O)O)CC(O)C1O (stereo not given) [1,3-Dicaffeoylquinic acid] (10 µM)
0: all assays above

CNC(=O)Nc1ccc(-c2cc(-c3ccnc(Nc4ccc(C)c(S(=O)(=O)N(C)C)c4)n3)ccn2)cc1 [hSMG-1 inhibitor 11e] (2.5 µM)
1: PTK2 | RAF1 | RIPK1 | RIPK2 | ULK3
3: [1] | TYK2
2: RIOK1 | TEC
0: all other assays above

C=CC(=O)Nc1cc2c(Nc3ccc(OCc4ccccn4)c(Cl)c3)ncnc2cc1OCCN1CCOCC1 (10 µM)
4: TYK2
3: PTK2
0: all other assays above
